Laboratory results: publication PMC9592212
These are yes or no findings as the source states them, for the method shown. Binding seen in cells or lysates may run through a third protein. Some entries that bind do so weakly or less than the wild type.

Amino acid sequences for entries named in this document (tags omitted).
UniProt Q8R4B8: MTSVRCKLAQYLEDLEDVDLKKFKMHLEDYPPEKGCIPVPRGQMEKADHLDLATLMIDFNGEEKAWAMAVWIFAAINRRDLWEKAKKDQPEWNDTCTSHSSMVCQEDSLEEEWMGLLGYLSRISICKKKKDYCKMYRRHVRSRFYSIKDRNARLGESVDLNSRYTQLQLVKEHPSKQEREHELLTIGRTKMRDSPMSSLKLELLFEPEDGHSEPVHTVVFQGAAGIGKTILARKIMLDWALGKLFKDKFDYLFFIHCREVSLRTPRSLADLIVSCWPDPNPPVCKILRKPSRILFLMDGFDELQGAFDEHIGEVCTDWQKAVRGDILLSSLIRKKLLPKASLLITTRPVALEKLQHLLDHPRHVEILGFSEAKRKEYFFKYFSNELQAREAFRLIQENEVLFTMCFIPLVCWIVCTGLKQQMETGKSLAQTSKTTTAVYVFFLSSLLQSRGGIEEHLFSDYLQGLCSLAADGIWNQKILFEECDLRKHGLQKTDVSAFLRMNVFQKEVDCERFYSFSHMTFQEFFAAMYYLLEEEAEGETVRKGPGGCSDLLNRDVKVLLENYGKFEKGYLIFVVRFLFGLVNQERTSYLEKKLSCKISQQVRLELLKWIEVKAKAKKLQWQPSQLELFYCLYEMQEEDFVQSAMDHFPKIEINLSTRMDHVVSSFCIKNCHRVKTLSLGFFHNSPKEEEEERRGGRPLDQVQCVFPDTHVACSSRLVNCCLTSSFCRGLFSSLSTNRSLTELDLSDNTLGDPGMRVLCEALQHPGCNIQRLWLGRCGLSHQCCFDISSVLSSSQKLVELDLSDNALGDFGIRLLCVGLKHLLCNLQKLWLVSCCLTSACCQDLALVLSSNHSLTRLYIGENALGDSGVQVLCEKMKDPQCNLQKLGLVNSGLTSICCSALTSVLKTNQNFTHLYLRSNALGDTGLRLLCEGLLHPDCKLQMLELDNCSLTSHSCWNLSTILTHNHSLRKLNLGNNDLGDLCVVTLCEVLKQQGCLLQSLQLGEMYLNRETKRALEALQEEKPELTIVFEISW

How the values were obtained:
[1] = biological target: T1, thioredoxin-interacting protein (mouse (endogenous in BMDMs)) (UniProt Q8BG60); assay: co-IP; lysates of LPS-primed mouse BMDMs stimulated with nigericin (1 h) or MSU (also with corilagin 40 μM and imiquimod 70 μM in the MSU experiment); anti-TXNIP antibody or IgG at 4°C overnight, protein A/G agarose beads, blot for NLRP3
T1 sequence: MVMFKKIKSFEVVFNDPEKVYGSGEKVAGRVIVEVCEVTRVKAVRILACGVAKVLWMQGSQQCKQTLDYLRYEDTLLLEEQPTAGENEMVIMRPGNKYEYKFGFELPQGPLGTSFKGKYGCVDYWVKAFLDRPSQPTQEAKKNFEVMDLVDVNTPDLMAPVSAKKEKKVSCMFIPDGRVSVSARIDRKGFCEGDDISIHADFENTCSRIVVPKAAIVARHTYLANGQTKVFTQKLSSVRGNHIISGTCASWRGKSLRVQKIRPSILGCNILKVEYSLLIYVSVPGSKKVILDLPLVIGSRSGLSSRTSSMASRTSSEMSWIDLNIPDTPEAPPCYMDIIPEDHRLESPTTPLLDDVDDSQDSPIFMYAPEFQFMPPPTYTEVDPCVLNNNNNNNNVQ

[2] = biological target: T1, thioredoxin-interacting protein (mouse (endogenous in BMDMs)); assay: condition: only cells treated with corilagin (40 μM) before nigericin; co-IP; as a1, but LPS-primed BMDMs incubated with corilagin (40 μM) for 30 min before nigericin for 1 h; anti-TXNIP precipitation

binding [1]: binds | binding [2]: no binding
Substance: NLR family pyrin domain-containing protein 3 (from UniProt Q8R4B8 1-1033)
